Measured values: patent EP3046573B1, “AMYLIN ANALOGUES” (Zealand Pharma A/S, priority 2013, dated 2015)
Part of at least one peptide drawing is inferred or uncertain, most often the ends. Numbered stars: 1 amine (or outer) side, 2 acyl side, 3 side chain; on linkers, the order of the positions; unused ones are H or OH. Bridge positions count the residues as written; N and C are the ends. Peptide text beside a SMILES is read from it. * marks the point of attachment. C20 diacid = O=C(O)CCCCCCCCCCCCCCCCCCC(=O)*; γGlu = O=C(O)[C@H](CCC(=O)[*:2])N[*:1]

How the values were obtained:
[1] = Assessment of physical stability: fibril formation detected with Thioflavin T (ThT), lag-time; type: physicochemical; conditions: 1 mg/ml peptide, 40 µM ThT, FND = Fibrillation not detected
Experimental: Solutions containing (i) 1 mg/ml of test peptide, 40 µM ThT and 50 mM phosphate (Ph) buffer (pH 7.0), (ii) 1 mg/ml of test peptide, 40 µM ThT and 50 mM histidine (His) buffer (pH 7.0), and (iii) 1 mg/ml of test peptide, 40 µM ThT and 50 mM acetate (Ac) buffer (pH 4.0), were loaded in a 96-well black fluorescence plate (clear bottom) in triplicate. Data were collected at fixed intervals of 10 min, each preceded by 300 s of automixing (agitation), over a period of 96 hours at 40° C. Physical stability, expressed as lag-time of fibril formation (in hours), was defined as the intersection between two linear regressions representing the initial stable phase and the growth phase.

Sprague Dawley (SD) rats = test: Acute food intake and body weight in normal Sprague Dawley rats; type: in vivo; conditions: vehicle-corrected, dose 30 nmol/kg sc, once
Experimental: Sprague Dawley (SD) rats were obtained from Taconic A/S, Denmark. The animals arrived at least 7 days before the study start to allow acclimatization to experimental conditions. From arrival and throughout the study, the rats were housed in groups of 2 (n = 2) in a light-, temperature- and humidity-controlled room (reversed 12/12 h light/dark cycle: lights turned off during day-time and on during night-time; temperature 20-22°C; relative humidity 50-80%). Animals had access ad libitum to food (Altromin™ 1324, Brogaarden A/S, Gentofte, Denmark) and water (domestic quality tap water with citric acid added to pH ∼ 3.6) during the entire study. Stratification of rats was based on body weight (BW) on a cage-by-cage basis; mean BWs per cage were used as the basis for pairing four cages together in a group (n = 8 per group). A vehicle group and positive control group were included in each set of tests. Rats were dosed subcutaneously (sc) once in the morning immediately before turning off the lights, using a body weight-corrected dose of peptide (30 nmol/kg). Dosing volume was 5 ml/kg. Food intake was recorded manually at t = 0 (pre-dose) and at t = 4, 7, 10, 24, 48, 72 and 96 hours after dosing. Body weight was measured daily.
Statistical analyses on body weight were performed using GraphPad™ Prism version 5. The measured parameters were compared using unpaired t tests. […]

CC[C@H](C)[C@H](NC(=O)[C@@H]1CCCN1C(=O)CNC(=O)[C@H](Cc1ccccc1)NC(=O)[C@H](CC(N)=O)NC(=O)[C@H](CC(N)=O)NC(=O)[C@H](CO)NC(=O)[C@H](CO)NC(=O)[C@H](Cc1c[nH]cn1)NC(=O)[C@H](Cc1c[nH]cn1)NC(=O)[C@H](CC(C)C)NC(=O)[C@H](Cc1ccccc1)NC(=O)[C@H](CCC(=O)O)NC(=O)[C@H](C)NC(=O)[C@H](CC(C)C)NC(=O)[C@H](CCCNC(=N)N)NC(=O)[C@H](CCC(N)=O)NC(=O)[C@@H](NC(=O)[C@H](C)NC(=O)[C@@H]1CSSC[C@H](NC(=O)[C@H](CCCNC(=N)N)NC(=O)CC[C@H](NC(=O)CCCCCCCCCCCCCCCCCCC(=O)O)C(=O)O)C(=O)N[C@@H](CC(N)=O)C(=O)N[C@@H]([C@@H](C)O)C(=O)N[C@@H](C)C(=O)N[C@@H]([C@@H](C)O)C(=O)N1)[C@@H](C)O)C(=O)N[C@@H](CC(C)C)C(=O)N1CCC[C@H]1C(=O)N1CCC[C@H]1C(=O)N[C@H](C(=O)N[C@@H](CC(N)=O)C(=O)N[C@H](C(=O)NCC(=O)N[C@@H](CO)C(=O)N[C@@H](CC(N)=O)C(=O)N[C@H](C(=O)N1CCC[C@H]1C(N)=O)[C@@H](C)O)C(C)C)[C@@H](C)O [NN96, N-α-[(S)-4-carboxy-4-(19-carboxynonadecanoylamino)butyryl]-[Arg1,Glu14,His17,Pro37]-pramlintide, reference compound] ({C20 diacid-γGlu}-RCNTATCATQRLAEFLHHSSNNFGPILPPTNVGSNTP-NH2; disulfide 2-7)
Fibrillation lag time (hours) pH 4.0 (Ac) ([1]; 50 mM acetate buffer pH 4.0, 96 hours at 40°C): FND | Fibrillation lag time (hours) pH 7.0 (His) ([1]; 50 mM histidine buffer pH 7.0, 96 hours at 40°C): 25 hours | Fibrillation lag time (hours) pH 7.0 (Ph) ([1]; 50 mM phosphate buffer pH 7.0, 96 hours at 40°C): 60 hours | Food intake inhibition (%) after 48 hours (Sprague Dawley (SD) rats; 48 hours): 100% | Body weight loss (%) after 96 hours (Sprague Dawley (SD) rats; mean ± SEM, 96 hours, n = 8): 14 ± 1.8%
